Experimental data: publication PMC2705503
Results are given in words; binding and its absence hold for the method and conditions named. Some binding calls cover weakened binding; strength is not graded here.

Sequences of proteins named here, by UniProt entry; tags and fusion partners are left off. Residues count along the entry.
UniProt P78560, residues 94-199: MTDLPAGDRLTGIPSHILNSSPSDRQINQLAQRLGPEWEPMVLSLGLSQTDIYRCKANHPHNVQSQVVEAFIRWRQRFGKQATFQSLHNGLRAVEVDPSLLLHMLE

Experiments:
[1] = biological target: RAIDD Death-Domain (DD) (94-199) (human) (UniProt P78560); experiment: SEC; RAIDD DD alone; Superdex 200 10/30, 20 mM Tris-HCl pH 8.0, 150 mM KCl; both purified
PIDD Death Domain (DD) = biological target: T1, PIDD Death Domain (DD) (UniProt Q9HB75); experiment: SEC; separately purified RAIDD DD and PIDD DD incubated 1 hr at room temperature, concentrated to 15-20 mg/mL; Superdex 200 10/30, 20 mM Tris-HCl pH 8.0, 50 mM NaCl; peak fractions checked by SDS-PAGE; both purified
T1 sequence: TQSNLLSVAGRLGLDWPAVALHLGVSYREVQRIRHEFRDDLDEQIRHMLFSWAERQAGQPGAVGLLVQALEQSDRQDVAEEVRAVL

“RAIDD Death-Domain (DD) (94-199) (from UniProt P78560 94-199) (domain or fragment)” was tested, and the binding [1] was “no binding” and the binding (PIDD Death Domain (DD)) was “binds”.
